These are yes or no findings as the source states them, for the method shown. In cells and extracts the contact can be indirect. Some entries that bind do so weakly or less than the wild type. Tags and fused reporters may be left off the sequences shown.
Experiments:
[1] = biological target: T1, anticodon-binding domain of HisRS fused to GFP (ABD-GFP) (S. cerevisiae) (UniProt P07263); assay: co-IP; CD-GFP or ABD-GFP plasmid in yeast cells with endogenously TAP-tagged HisRS; precipitated with GFP-Trap (anti-GFP) beads; western with anti-TAP antibodies, anti-GFP as control of IP efficiency
T1 sequence: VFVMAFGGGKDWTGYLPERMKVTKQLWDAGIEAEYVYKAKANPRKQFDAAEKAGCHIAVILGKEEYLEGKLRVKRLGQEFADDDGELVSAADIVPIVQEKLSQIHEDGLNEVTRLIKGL

[2] = biological target: T2, catalytic domain of HisRS fused to GFP (CD-GFP) (S. cerevisiae) (UniProt P07263); assay: as above
T2 sequence: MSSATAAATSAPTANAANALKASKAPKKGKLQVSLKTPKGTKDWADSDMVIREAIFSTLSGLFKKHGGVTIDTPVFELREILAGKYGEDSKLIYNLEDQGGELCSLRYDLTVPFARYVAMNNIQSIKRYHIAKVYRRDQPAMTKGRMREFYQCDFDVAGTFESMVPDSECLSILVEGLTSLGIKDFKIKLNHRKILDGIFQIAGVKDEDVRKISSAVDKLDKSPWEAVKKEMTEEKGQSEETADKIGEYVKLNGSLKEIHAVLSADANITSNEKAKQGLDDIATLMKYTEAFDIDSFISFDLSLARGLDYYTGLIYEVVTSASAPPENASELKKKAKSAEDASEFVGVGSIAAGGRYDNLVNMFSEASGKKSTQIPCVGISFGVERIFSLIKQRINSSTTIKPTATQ

B1: histidyl-tRNA synthetase (HisRS), endogenously TAP-tagged (enzyme, UniProt P07263 21-546)
chain: MSSATAAATSAPTANAANALKASKAPKKGKLQVSLKTPKGTKDWADSDMVIREAIFSTLSGLFKKHGGVTIDTPVFELREILAGKYGEDSKLIYNLEDQGGELCSLRYDLTVPFARYVAMNNIQSIKRYHIAKVYRRDQPAMTKGRMREFYQCDFDVAGTFESMVPDSECLSILVEGLTSLGIKDFKIKLNHRKILDGIFQIAGVKDEDVRKISSAVDKLDKSPWEAVKKEMTEEKGQSEETADKIGEYVKLNGSLKEIHAVLSADANITSNEKAKQGLDDIATLMKYTEAFDIDSFISFDLSLARGLDYYTGLIYEVVTSASAPPENASELKKKAKSAEDASEFVGVGSIAAGGRYDNLVNMFSEASGKKSTQIPCVGISFGVERIFSLIKQRINSSTTIKPTATQVFVMAFGGGKDWTGYLPERMKVTKQLWDAGIEAEYVYKAKANPRKQFDAAEKAGCHIAVILGKEEYLEGKLRVKRLGQEFADDDGELVSAADIVPIVQEKLSQIHEDGLNEVTRLIKGL
binding [1]: no binding | binding [2]: binds

From paper PMC6542539
